{
  "source": "paper PMC8162437",
  "about": "(Chemical Science, 2020)",
  "test": "general procedure: Fmoc solid-phase peptide synthesis; rink amide resin (P3Biosystems, 52001)",
  "details": "late stage modification step",
  "note": "HELM strings list residues between dots; [ac] is acetyl, [am] amide, other brackets name non-standard units.",
  "data": [
    {"substance": "H-RPPGFSPFR-OH", "values": [
      {"measurement": "step yield", "setting": "RP-HPLC with internal standard", "value": 36, "unit": "%"}
    ]},
    {"substance": "PEPTIDE1{[MeNHSO2Ph-Val].Y.I.H.P.F}$$$$V2.0", "values": [
      {"measurement": "step yield", "setting": "RP-HPLC with internal standard", "value": 97, "unit": "%"},
      {"measurement": "step yield", "setting": "isolated, TFA salt", "value": 68, "unit": "%"}
    ]},
    {"substance": "H-DRVYIHPFHL-OH", "values": [
      {"measurement": "step yield", "setting": "RP-HPLC with internal standard", "value": 20, "unit": "%"}
    ]},
    {"substance": "H-RPKPQQWFWLL-NH2", "values": [
      {"measurement": "step yield", "setting": "RP-HPLC with internal standard", "value": 45, "unit": "%"}
    ]},
    {"substance": "H-MEVGWYRSPFSRVVHLYRNGK-OH", "values": [
      {"measurement": "step yield", "setting": "RP-HPLC with internal standard", "value": 18, "unit": "%"}
    ]},
    {"substance": "arylated bradykinin (H-RPPGFSPFR-OH)", "values": [
      {"measurement": "step yield", "setting": "isolated, bis-TFA salt", "value": 42, "unit": "%"}
    ]}
  ]
}
